For three substances, binding results are on record in publication PMC11368183.

Sequences of proteins named here, by UniProt entry; tags and fusion partners are left off. A change or cut given only in a name is not applied to a line headed by its entry. A line that says so, or that is headed by a name, gives the form on record, which may keep a tag or linker.
UniProt Q9VQU9: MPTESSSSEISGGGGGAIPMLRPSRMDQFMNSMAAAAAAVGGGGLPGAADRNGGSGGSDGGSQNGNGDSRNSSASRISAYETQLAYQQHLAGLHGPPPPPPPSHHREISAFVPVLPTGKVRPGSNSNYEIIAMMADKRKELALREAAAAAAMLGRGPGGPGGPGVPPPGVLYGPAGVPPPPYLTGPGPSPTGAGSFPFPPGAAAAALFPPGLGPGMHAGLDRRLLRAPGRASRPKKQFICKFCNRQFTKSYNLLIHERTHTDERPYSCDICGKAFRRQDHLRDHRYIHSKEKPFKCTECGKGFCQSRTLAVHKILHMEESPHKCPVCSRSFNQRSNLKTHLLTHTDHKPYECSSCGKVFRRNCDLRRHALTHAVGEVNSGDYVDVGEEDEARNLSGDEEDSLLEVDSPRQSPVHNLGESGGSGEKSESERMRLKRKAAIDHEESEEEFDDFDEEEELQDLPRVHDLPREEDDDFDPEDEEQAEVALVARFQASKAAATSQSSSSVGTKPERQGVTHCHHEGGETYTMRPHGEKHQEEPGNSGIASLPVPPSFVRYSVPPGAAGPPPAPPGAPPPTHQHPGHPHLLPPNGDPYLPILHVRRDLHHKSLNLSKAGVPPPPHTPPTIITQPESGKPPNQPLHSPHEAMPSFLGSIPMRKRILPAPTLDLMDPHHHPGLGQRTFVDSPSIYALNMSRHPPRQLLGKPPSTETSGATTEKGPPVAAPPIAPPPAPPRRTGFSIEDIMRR
HA-Bowl^122–373K137R (Q9VQU9, form named): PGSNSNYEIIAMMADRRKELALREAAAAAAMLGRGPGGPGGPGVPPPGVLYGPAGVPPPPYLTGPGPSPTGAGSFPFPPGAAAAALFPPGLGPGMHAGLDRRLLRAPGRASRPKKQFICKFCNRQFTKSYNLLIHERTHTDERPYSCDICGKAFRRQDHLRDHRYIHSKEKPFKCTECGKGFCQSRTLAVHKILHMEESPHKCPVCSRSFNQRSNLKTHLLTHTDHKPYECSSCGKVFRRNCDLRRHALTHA
UniProt P51592: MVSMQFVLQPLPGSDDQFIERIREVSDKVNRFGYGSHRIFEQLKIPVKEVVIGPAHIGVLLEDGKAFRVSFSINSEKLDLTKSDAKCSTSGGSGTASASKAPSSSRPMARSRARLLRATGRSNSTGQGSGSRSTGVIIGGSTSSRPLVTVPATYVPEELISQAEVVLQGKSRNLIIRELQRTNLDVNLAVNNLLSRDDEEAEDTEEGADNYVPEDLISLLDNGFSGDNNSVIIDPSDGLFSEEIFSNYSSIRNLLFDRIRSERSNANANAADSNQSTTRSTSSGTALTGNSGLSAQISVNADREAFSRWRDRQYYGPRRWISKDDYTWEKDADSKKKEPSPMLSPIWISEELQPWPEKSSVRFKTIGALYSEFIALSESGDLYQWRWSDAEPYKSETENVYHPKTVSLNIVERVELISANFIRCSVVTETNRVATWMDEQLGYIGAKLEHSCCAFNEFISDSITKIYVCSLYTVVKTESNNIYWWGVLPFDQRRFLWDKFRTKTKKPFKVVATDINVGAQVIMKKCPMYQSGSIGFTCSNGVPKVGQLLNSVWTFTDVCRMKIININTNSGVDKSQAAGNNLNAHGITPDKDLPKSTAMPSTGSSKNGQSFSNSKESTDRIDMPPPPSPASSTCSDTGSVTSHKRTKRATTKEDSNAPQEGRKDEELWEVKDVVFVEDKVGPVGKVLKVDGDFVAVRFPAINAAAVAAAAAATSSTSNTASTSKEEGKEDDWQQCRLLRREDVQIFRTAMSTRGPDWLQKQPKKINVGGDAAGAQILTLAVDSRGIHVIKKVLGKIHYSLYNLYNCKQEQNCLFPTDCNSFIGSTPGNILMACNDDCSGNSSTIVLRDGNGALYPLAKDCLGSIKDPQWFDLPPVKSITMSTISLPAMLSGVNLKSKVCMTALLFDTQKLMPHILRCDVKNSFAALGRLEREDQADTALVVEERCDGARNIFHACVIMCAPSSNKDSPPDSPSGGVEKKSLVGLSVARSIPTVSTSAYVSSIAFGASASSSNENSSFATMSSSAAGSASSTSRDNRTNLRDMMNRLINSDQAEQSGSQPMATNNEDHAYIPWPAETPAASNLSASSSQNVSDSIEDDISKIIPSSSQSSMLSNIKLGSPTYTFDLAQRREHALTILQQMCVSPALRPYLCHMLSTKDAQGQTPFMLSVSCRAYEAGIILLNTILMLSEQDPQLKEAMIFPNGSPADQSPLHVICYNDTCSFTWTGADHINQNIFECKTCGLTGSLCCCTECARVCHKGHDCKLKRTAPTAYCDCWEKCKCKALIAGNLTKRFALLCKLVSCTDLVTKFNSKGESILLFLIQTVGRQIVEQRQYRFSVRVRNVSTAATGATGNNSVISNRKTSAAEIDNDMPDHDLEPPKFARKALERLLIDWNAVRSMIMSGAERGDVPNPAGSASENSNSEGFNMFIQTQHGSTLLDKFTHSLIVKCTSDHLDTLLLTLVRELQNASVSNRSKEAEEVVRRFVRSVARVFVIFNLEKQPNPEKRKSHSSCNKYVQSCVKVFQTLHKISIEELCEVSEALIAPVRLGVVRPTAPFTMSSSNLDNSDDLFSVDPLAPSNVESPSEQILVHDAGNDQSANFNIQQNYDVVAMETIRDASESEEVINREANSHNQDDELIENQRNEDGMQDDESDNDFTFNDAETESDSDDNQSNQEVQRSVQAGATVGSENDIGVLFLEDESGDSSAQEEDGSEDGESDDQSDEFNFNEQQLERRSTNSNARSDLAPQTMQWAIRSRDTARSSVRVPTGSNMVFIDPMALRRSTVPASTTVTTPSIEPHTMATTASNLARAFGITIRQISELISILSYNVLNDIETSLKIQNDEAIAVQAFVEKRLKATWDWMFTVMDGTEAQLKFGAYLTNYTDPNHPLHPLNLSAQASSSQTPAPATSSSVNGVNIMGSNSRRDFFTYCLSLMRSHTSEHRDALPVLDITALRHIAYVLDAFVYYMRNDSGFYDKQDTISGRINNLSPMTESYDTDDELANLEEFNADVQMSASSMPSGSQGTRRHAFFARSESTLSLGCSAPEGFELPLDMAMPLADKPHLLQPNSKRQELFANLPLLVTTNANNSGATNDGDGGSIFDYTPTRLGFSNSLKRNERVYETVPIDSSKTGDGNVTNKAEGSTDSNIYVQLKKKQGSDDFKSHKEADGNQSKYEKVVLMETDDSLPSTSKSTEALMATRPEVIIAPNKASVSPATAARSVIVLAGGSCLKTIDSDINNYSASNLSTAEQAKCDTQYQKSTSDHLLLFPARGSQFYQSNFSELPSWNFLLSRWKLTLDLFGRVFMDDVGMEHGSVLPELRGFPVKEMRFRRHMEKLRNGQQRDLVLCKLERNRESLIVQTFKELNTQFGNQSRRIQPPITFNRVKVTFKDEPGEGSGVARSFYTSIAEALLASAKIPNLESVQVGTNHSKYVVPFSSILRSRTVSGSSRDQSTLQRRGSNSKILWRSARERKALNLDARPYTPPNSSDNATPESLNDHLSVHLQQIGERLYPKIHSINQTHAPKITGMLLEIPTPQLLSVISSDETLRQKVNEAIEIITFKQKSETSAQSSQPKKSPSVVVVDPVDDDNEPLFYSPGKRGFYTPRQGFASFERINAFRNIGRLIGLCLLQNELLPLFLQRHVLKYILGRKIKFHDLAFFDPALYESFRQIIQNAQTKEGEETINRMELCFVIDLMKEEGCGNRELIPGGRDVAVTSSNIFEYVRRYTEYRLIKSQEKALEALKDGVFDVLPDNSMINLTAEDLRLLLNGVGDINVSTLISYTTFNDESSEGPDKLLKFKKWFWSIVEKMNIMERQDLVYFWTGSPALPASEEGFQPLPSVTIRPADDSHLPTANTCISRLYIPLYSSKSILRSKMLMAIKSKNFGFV

Residue numbers refer to the chain shown, from its start. Results are given in words; binding and its absence hold for the method and conditions named. In cells and extracts the contact can be indirect. Some results given as binding are weak or reduced against the parent protein; the word gives no strength. For some assays here: Where a sequence is shown, tags or fusion partners need not be part of it.

Test [1] deals with T1, FLAG-Lin (Lines) (Drosophila) (UniProt Q9V4Z9).
T1 sequence: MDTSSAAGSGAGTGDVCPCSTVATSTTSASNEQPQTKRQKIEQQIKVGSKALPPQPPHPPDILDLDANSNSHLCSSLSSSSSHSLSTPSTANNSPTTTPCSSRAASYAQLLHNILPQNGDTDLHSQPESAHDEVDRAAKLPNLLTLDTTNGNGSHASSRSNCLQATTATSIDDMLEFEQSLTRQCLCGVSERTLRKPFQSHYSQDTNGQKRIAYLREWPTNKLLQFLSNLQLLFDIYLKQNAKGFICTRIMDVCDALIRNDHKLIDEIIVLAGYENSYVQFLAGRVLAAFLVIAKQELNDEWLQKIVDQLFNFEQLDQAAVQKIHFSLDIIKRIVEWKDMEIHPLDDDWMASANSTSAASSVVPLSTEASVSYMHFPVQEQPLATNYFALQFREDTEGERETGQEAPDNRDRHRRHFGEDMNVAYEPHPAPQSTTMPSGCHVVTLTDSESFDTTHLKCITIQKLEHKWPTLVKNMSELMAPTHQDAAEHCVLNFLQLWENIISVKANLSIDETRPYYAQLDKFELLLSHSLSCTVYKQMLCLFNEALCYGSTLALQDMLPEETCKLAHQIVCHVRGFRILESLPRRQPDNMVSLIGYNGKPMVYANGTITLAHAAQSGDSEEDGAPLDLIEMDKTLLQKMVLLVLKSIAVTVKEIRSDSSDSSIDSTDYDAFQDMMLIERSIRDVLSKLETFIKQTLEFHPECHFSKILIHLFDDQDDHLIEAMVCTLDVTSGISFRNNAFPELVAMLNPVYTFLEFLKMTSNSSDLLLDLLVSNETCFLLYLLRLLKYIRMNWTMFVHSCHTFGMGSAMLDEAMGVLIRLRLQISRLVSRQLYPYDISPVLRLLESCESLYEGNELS
Put plainly: co-IP; S2R+ cells expressing Lin, Lin^A24 or Lin^A25 with HA-Bowl^122–373K137R (Figure 4E) or with Hyd (Figure 4F).

In test [2] the target is T2, Lin^A24 mutant protein (F713S) (Drosophila) (UniProt Q9V4Z9).
T2 sequence: T1 sequence with F713S
The test is described as above.

For test [3], the target named is T3, Lin^A25 mutant protein (N793I) (Drosophila) (UniProt Q9V4Z9).
T3 sequence: T1 sequence with N793I
The test is described as above.

The target of test [4] is T1, FLAG-Lin (Lines) (Drosophila). Put plainly: co-IP; S2R+ cells expressing FLAG-Lin with HA-Bowl and/or Hyd-HA; cells treated with 10 μM PS-341 for 4 h before harvesting (Figure 4C).
Test [5] has the same target. In words: co-IP; S2R+ cells expressing Lin and Bowl without or with coexpressed Drm; cells treated with PS-341 (Figure 4G).

On to “HA-Bowl^122–373K137R (from UniProt Q9VQU9 122-373) (domain or fragment)”, for which the binding entry in test [1] and in test [2] was “binds” in each case.
With “Hyd-HA (hyperplastic disc) (from UniProt P51592 1-2885) (enzyme)”, the binding result in test [1], in test [2], in test [3] and in test [4] was “binds” throughout.
On to HA-Bowl (from UniProt Q9VQU9 1-744), for which the binding result in test [5] and in test [4] was “binds” in each case.
